Data reported in US5858973.

Chains of the proteins cited; added tags and fusions are not shown. A line that says so, or that is headed by a name, gives the form on record, which may keep a tag or linker.
UniProt P52947, other isoform, or with tags, fused parts or gaps: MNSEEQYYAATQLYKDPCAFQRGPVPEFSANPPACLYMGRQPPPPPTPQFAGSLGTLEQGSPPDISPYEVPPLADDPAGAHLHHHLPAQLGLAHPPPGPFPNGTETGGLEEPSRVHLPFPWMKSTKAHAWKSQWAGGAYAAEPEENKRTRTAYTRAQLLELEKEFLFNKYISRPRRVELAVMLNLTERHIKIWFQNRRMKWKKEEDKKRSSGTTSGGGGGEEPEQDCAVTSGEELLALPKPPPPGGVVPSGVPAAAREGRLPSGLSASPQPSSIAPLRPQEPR

Target: IDX-1 (native in RIN1027-B2 nuclear extract) (Rattus norvegicus) (UniProt P52947)
Assay: EMSA
Conditions: protein in an extract, label: 32P
[1] = complex disrupted by IDX-1 antiserum
[2] = complexes disrupted by IDX-1 antiserum

GATCCAGGCAAGATTATTTGGTCA (double strand) [SMS-PS]
binding result (no bands perturbed by IDX-1 antiserum): no binding

GATCCCTGATTGCATATTAATTCTCAGATA (double strand) [SMS-TAAT1]
binding result [1]: binds

GATCCGATCTCAGTAATTAATCATGCACCA (double strand) [SMS-TAAT2]
binding result [2]: binds

GATCCGCGAGGCTAATGGTGCGTAAAAGCACTGGTGA (double strand) [SMS-UE-B]
binding result [1]: binds

GATCCTTGTTAATCTAATTACCCTAGGTCTAA (double strand) [INS1-FLAT]
binding result [2]: binds

Where cells or extracts were used, other partners may take part. No signal at the amounts used counts as a negative.
